A short description of this test: qHTS Assay to Find Inhibitors of Chronic Active B-Cell Receptor Signaling. As to conditions: ABC-DLBCL IkBa-CBG/CBR reporter, luminescence ratio (green luciferase fused to IkBa over red control in TMD8 lymphoma cells), 4 h. The gist of the method: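 Cell line TMD8 (human ABC DLBCL), stably expressing tet-inducible CBG68-IkBa fusion and CBR; IMDM/0.5% FBS; cpd up to 46 uM; dox induction, 4 h, 37C/5% CO2; dual luminescence; green/red ratio; MG132 control.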

Setting [1] is: measured here: CBR red luminescence, cell number.
[2] abbreviates: measured here: IkBa-CBG green luminescence.

Some of the results follow. These are further read-outs of the screen, such as a control signal, another cell line or another target. No call is given for them. Most of these compounds were active or inconclusive in the main read-out, so they are no random draw. The note in brackets gives the kind of curve behind each potency; many fits are weak.

This passage reports AC50 results from PubChem BioAssay AID493014 (National Center for Advancing Translational Sciences (NCATS), 2011).

The term AC50 denotes the concentration giving half of the maximal activity seen.

With `Nc1n[nH]c(=S)n1/N=C1/C(=O)Nc2ccccc21`, the AC50 under setting [1] is 7.94 µM [falling, partial curve].

Consider `CSCCC(NC(N)=O)C(=O)NCc1ccc(Cl)cc1` (stereo not given), for which the AC50 under setting [1] is 29.1 µM [rising, single point].

Regarding `CCC(=O)Nc1cc(C)c(O)c(-c2nc3ncccc3o2)c1`, the AC50 under setting [1] was 35.5 µM [falling, single point].

As to `O=C(c1ccco1)N1CCN(Cc2nc(-c3cccs3)no2)CC1`, the AC50 under setting [1] is 17.8 µM [rising, partial curve, poor fit].

In the case of `CCN(CC)CCNC(=O)c1cc2c(s1)-c1ccccc1SC2`, the AC50 under setting [1] was 28.2 µM [falling, single point].

On to `COc1cccc(-n2nc(C(C)=O)c(=O)[nH]c2=O)c1`, for which the half-maximal activity concentration (AC50) under setting [1] was 0.316 µM [rising, full curve, poor fit].

Consider `O=C(CSc1nc2ccccc2c(=O)n1-c1ccccc1F)N1CCOCC1`, for which the AC50 under setting [2] was 2.91 µM [falling, partial curve, poor fit].

For the compound `O=C(Cn1nc(-c2ccccc2)ccc1=O)NCCCN1CCOCC1`, the AC50 under setting [1] was 5.62 µM [rising, single point].

Take `COC(=O)c1cc(CSc2nc3ccccc3[nH]2)oc1C`: the AC50 under setting [1] is 1.64 µM [falling, full curve].

Turning to `COc1cc2ccccc2cc1C(=O)Nc1sc2c(c1C(N)=O)CCN(C(C)C)C2`, under setting [1], the AC50 was 17.8 µM [falling, partial curve, poor fit].

`CCOc1ccc(NC(=O)NCc2ccccn2)cc1`: the AC50 under setting [1] is 35.5 µM [falling, single point].

On to `O=C1c2cccc(OCC(=O)N3CCCc4ccccc43)c2CCN1Cc1ccc(F)cc1`, for which the AC50 under setting [1] was 20.6 µM [falling, partial curve].

On to `CCC(Sc1ncccc1C(=O)Oc1cccc([N+](=O)[O-])c1)C(=O)Nc1ccccc1OC` (stereo not given), for which, under setting [1], the AC50 was 3.26 µM [falling, partial curve, poor fit].

In the case of `CCC(c1nnc(SCC(=O)Nc2cc(S(C)(=O)=O)ccc2Cl)n1Cc1ccccc1)N(C)C` (stereo not given), the AC50 under setting [1] is 17.8 µM [rising, partial curve, poor fit].

On to `Nc1nc(SCC(=O)NC2CCCCCC2)[nH]c(=O)c1-c1ccccc1`, for which the AC50 under setting [1] was 18.4 µM [falling, partial curve, poor fit].

With `COC(=O)c1c(C(=O)OC)c(C)n(Cc2cccnc2)c1C`, the AC50 under setting [1] is 6.51 µM [rising, single point].

On to `CCOCCCNC(=S)N1CCC(NC(=O)C2CCCCC2)CC1`, for which, under setting [1], the AC50 was 0.562 µM [rising, full curve, poor fit].

`CCOC(=O)N1CC=C2C(C#N)=C(N)C(C#N)(C#N)[C@H](c3cccs3)[C@H]2C1`: the AC50 under setting [1] is 2.31 µM [falling, full curve, poor fit].

For the compound `NC(=S)N/N=C/C=C/c1ccccc1`, the AC50 under setting [2] is 23.1 µM [falling, single point].

Take `CSCCC(NC(=O)c1ccc(Cl)cc1Cl)C(=O)OC1CCCCC1=O` (stereo not given): under setting [1], the AC50 is 1.64 µM [rising, partial curve, poor fit].

Consider `CCn1cc(/C=N\NC(=O)c2ccccc2Cl)cn1`, for which the AC50 under setting [1] is 13 µM [falling, partial curve].

In the case of `CCCCn1c(=O)[nH]c(=O)c2c1nc(Cn1ncc(Cl)c(Cl)c1=O)n2CCC`, the AC50 is, setting by setting: under setting [1], 12.6 µM [falling, partial curve]; under setting [2], 35.5 µM [rising, partial curve, poor fit].

As to `C=CCNc1nc(-c2ccc([N+](=O)[O-])cc2)cs1`, the half-maximal activity concentration (AC50) under setting [1] was 0.517 µM [rising, partial curve].

Take `c1ccc(-c2ccccc2OCCCN2CCCCCC2)cc1`: the AC50 under setting [1] is 12.6 µM [falling, single point].

As for `Cc1ccc(-n2[nH]c(C)c(/C=N/NC(=O)c3ccc(O)cc3O)c2=O)cc1`, the AC50 under setting [1] was 0.316 µM [falling, full curve, poor fit].

For `CCC(=O)Oc1ccc(C(=O)Nc2cccc(NC(=O)c3ccco3)c2)cc1`, the AC50 under setting [1] was 1.26 µM [falling, full curve].

Consider `CC1(C)O[C@@H]2C[C@H]3[C@@H]4CCC5=CC(=O)CC[C@]5(C)[C@@]4(F)[C@@H](O)C[C@]3(C)[C@]2(C(=O)CCl)O1`, for which the AC50 under setting [1] is 0.517 µM [rising, full curve, poor fit].

On to `COc1cccc(CC(NC(C)=O)C(=O)NC2CCN(C(=O)NCc3ccccc3)CC2)c1` (stereo not given), for which the AC50 under setting [1] was 25.1 µM [falling, partial curve, poor fit].

`CCCc1cc(=O)[nH]c2nnc(SCC(=O)N3CC(C)OC(C)C3)n12` (stereo not given): under setting [1], the AC50 was 1.84 µM [rising, full curve, poor fit].

Regarding `CCN1CCN(C(=O)C2CCC(CNS(=O)(=O)c3ccccc3)CC2)CC1` (stereo not given), the AC50 under setting [1] was 4.61 µM [falling, single point].

`COc1ccccc1-c1sc2ccccc2c1-c1ccc2c(c1)OCCO2`: the AC50 under setting [1] was 18.4 µM [rising, partial curve].

Take `CC(/C=N/NC(=O)c1sc(N)nc1C)=C\c1ccccc1`: the AC50 under setting [1] is 0.501 µM [falling, full curve].

For `COc1ccc(N2CCN(C3CCCCC3NS(=O)(=O)c3ccc(Cl)cc3)CC2)cc1` (stereo not given), the AC50 under setting [1] is 3.98 µM [rising, partial curve].

Regarding `Cc1ccc(Cn2nc(C)c(C(=O)N3CCN(S(=O)(=O)/C=C/c4ccccc4)CC3)c2C)cc1`, the AC50 under setting [1] is 0.82 µM [rising, full curve, poor fit].

As to `C/C(CC(=O)Nc1ccc(Cl)c(C(F)(F)F)c1)=N\NC(N)=S`, under setting [1], the concentration at half-maximal activity (AC50) is 10 µM [falling, partial curve, poor fit].

For the compound `CCn1cc(C(=O)O)c(=O)c2cc(F)c(N3CCN(C(=S)Nc4ccccc4OC)CC3)cc21`, the AC50 under setting [1] is 22.4 µM [falling, single point].

Turning to `COc1cc(C(=O)NCC(c2cccnc2)N2CCN(c3ccccc3)CC2)cc(OC)c1OC` (stereo not given), the AC50 under setting [1] is 6.51 µM [rising, single point].

Consider `COc1ccc(NC(=O)c2oc3ccccc3c2NC(=O)c2ccc3c(c2)OCO3)cc1`, for which, under setting [1], the AC50 was 2.91 µM [falling, full curve].

Regarding `O=C(O)c1ccc(N/N=C/c2ccncc2)cc1`, under setting [1], the concentration at half-maximal activity (AC50) was 0.447 µM [falling, full curve].

As to `CC(C)c1ccc2[nH]c3c(c2c1)CCC/C3=N\NC(=O)c1ccncc1`, the AC50 under setting [1] was 8.91 µM [rising, partial curve].

For the compound `O=C(CSc1cccc[n+]1[O-])c1cc(Cl)ccc1Cl`, the AC50 is, setting by setting: under setting [1], 0.708 µM [falling, partial curve, poor fit]; under setting [2], 0.631 µM [falling, full curve, poor fit].

Regarding `Cc1c(OCC(=O)N2CCC(C(=O)O)CC2)ccc2c3c(c(=O)oc12)CCC3`, under setting [1], the AC50 is 2.51 µM [falling, partial curve].

As to `CCC(CC)NC(=O)c1oc2ccccc2c1COc1ccccc1`, under setting [1], the AC50 was 13 µM [falling, partial curve, poor fit].

For the compound `Cc1cc(NC(=O)CSc2nnc(C3COc4ccccc4O3)n2N)no1` (stereo not given), under setting [1], the AC50 was 3.55 µM [falling, single point].

With `BrC(/C=N/N1CCN(Cc2ccccc2)CC1)=C/c1ccccc1`, the half-maximal activity concentration (AC50) under setting [1] was 0.2 µM [rising, full curve, poor fit].

As for `COC(=O)c1cc2occc2n1Cc1nc(-c2ccccc2F)oc1C`, under setting [1], the AC50 was 0.501 µM [rising, full curve, poor fit].

Turning to `CCOC(=O)c1sc2nc(CC(=O)OC)nc(N(C)CCc3ccccn3)c2c1C`, under setting [1], the AC50 was 0.794 µM [rising, partial curve, poor fit].

With `N#C/C(=C(/O)c1ccc(Br)s1)c1nc2ccccc2[nH]1`, the AC50 under setting [1] is 0.282 µM [falling, full curve, poor fit].

For `C=CCc1cc(OC)ccc1OCCN(C)Cc1ccccc1`, the AC50 under setting [1] was 31.6 µM [rising, single point].

Consider `O=C(CSc1nc(=O)n2ccccc2n1)Nc1ccc2c(c1)OCO2`, for which the AC50 under setting [1] was 25.9 µM [rising, single point].

`Cc1cccc(-n2c(O)c(C=Nc3ccccc3O)c3ccccc3c2=O)n1`: the AC50 under setting [1] is 17.8 µM [falling, single point].

As for `Nc1c(Cl)ncnc1N1CCN(c2ncnc(Cl)c2N)CC1`, under setting [1], the AC50 is 3.26 µM [falling, partial curve, poor fit].

Regarding `O=C1C=CC(=O)N1CCCCCCN1C(=O)C=CC1=O`, under setting [1], the AC50 was 2.06 µM [falling, full curve].

As for `COc1ccc(C(NC(C)=O)c2c(O)ccc3ccccc23)cc1OC` (stereo not given), the AC50 under setting [1] is 2.59 µM [rising, partial curve, poor fit].

Regarding `COc1ccccc1/C=C/C=C(\C#N)C(=O)NC(C)c1ccccc1` (stereo not given), the AC50 under setting [1] is 7.94 µM [falling, partial curve].

As for `CCN(C(=O)COC(=O)c1ccc(OC)c(S(=O)(=O)N(C)Cc2ccccc2)c1)C1CCS(=O)(=O)C1` (stereo not given), the AC50 under setting [1] is 0.366 µM [falling, full curve].

As to `Cc1c(C(=O)c2no[n+]([O-])c2C(=O)c2cnn(C)c2C)cnn1C`, the concentration at half-maximal activity (AC50) is, setting by setting: under setting [1], 12.6 µM [falling, partial curve]; under setting [2], 5.01 µM [falling, single point].

With `CCn1nc([N+](=O)[O-])c(C(C#N)c2nc3cc(C(F)(F)F)ccc3s2)c(Cl)c1=O` (stereo not given), the AC50 under setting [1] is 29.1 µM [falling, single point].

`Cc1ccc(-c2ccc(/C=N/N=C3/NC(=O)C(CC(=O)O)S3)o2)c([N+](=O)[O-])c1` (stereo not given): under setting [1], the AC50 is 29.1 µM [falling, single point].

On to `CCOC(=O)c1cnc2ccc(C)cc2c1NCCO`, for which the AC50 under setting [2] was 20.6 µM [rising, partial curve, poor fit].

Turning to `COc1cc(OC)cc(-c2c(C#Cc3ccsc3)c3cc(-c4ccccc4OC)ccc3n2C)c1`, under setting [1], the AC50 is 6.51 µM [falling, single point].

`Cc1nc2cc(NC(=O)Nc3cccc(F)c3)ccc2n1C`: the AC50 under setting [1] was 35.5 µM [falling, single point].
